Paper PMC8922104
No constants are given. Whether binding was seen depends on the method and setting. In cells and extracts the contact can be indirect. Some binding calls cover weakened binding; strength is not graded here.

Sequences of proteins named here, by UniProt entry; tags and fusion partners are left off.
UniProt P01106: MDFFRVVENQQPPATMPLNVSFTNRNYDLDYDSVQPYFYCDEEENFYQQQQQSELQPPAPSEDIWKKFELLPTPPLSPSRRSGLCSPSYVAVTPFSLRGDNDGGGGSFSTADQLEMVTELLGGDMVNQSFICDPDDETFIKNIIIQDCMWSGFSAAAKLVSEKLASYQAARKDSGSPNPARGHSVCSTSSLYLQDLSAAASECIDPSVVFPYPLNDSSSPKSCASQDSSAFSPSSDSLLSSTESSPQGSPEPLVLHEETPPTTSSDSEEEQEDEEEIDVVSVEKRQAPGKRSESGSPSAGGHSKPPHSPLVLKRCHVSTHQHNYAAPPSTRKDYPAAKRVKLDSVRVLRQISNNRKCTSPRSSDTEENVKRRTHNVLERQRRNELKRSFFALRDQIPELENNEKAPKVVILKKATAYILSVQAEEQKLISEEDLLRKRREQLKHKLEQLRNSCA
UniProt Q9UNE7: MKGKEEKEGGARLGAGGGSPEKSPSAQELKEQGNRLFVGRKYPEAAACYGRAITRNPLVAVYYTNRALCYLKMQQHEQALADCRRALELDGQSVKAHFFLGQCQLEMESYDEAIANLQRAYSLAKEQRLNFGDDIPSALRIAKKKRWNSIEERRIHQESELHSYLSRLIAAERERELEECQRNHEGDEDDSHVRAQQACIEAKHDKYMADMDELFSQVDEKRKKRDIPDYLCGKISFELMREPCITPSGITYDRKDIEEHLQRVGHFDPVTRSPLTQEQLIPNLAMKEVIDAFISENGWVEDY

Biological target: c‐Myc protein (human (endogenous in MOLM-13)) (UniProt P01106)
Assay: co-IP; endogenous co-IP from MOLM-13 cells treated with WBC100 (2 uM) or DMSO in the presence of MG-132 (10 uM) for 4 h; NP40 lysis buffer; c-Myc antibody and protein G magnetic beads, 4 °C; blots for CHIP and Hsp70

binding: binds
Substance: E3 ubiquitin ligase CHIP (from UniProt Q9UNE7 1-303) (enzyme)
